These are yes or no findings as the source states them, for the method shown. In cells and extracts the contact can be indirect. Some entries that bind do so weakly or less than the wild type.
Target: T1, beta-Dg (DAG1), β-dystroglycan, mouse (mouse (endogenous in tibialis anterior muscle)) (UniProt Q62165)
T1 sequence: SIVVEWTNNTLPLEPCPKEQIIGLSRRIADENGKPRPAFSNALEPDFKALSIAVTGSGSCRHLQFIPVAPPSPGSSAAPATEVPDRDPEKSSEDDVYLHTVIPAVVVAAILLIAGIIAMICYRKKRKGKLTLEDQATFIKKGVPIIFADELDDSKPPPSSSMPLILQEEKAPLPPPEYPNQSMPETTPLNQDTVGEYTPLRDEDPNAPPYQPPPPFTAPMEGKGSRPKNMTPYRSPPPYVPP
Experiment: co-IP; β-dystroglycan antibody (MANDAG2, clone 7D11) added to whole-cell extracts of mouse tibialis anterior muscle overnight at 4 °C, protein A/G agarose; washes with buffers up to 500 mM NaCl, 0.1% SDS, 0.1% Triton; control mouse IgG; immunoblot with Kibra antibody

The chains behind the UniProt entries cited, without tags or fusion partners.
UniProt Q5SXA9: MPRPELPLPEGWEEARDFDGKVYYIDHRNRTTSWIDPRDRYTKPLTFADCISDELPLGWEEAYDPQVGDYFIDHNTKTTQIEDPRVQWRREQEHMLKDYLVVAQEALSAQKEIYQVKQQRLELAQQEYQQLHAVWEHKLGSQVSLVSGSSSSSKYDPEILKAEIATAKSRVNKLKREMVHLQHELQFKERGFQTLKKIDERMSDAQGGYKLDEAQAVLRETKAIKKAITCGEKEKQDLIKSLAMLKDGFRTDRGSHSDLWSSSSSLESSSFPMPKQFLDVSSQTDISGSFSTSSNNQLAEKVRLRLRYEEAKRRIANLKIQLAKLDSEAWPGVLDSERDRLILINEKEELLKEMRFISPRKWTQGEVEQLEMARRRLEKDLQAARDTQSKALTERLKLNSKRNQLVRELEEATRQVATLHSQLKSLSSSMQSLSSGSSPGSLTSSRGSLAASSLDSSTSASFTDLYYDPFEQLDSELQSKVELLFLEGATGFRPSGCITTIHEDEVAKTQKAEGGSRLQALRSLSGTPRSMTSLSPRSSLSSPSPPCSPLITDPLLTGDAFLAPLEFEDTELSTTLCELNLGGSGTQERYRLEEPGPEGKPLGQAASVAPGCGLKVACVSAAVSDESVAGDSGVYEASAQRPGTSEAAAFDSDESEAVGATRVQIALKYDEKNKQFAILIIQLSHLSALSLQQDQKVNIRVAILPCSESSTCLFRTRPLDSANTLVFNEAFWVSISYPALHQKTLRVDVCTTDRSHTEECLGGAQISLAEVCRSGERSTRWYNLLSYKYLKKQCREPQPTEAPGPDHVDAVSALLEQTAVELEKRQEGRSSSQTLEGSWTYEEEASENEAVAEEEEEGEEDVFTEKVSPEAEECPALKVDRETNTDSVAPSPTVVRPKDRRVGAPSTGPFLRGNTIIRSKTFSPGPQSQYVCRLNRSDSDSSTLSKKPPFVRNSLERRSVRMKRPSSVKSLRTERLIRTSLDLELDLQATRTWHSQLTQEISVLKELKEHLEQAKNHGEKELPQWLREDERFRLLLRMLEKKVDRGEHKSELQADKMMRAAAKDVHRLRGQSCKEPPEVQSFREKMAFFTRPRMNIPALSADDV

- binding: binds
Substance: Kibra (Kbr), mouse (from UniProt Q5SXA9 1-1104)
